In article PMC7819943, “Rice protein-binding microarrays: a tool to detect cis-acting elements near promoter regions in rice”:
The list shows a part of the results.

Protein sequences, listed by entry. Tags and fused reporters are not part of them.
UniProt Q0JBA9, entry or part of it: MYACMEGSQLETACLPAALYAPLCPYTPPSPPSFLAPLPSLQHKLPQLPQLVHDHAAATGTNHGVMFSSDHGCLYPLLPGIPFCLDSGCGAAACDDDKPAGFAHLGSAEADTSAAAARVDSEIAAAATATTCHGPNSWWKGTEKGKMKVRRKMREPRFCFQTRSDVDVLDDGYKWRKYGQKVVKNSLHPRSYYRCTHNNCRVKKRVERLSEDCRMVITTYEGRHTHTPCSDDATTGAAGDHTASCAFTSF

biological target: OsWRKY34 (Oryza sativa, UniProt Q0JBA9 1-250); experiment: protein-binding microarray (RPBM); PBS, 2% BSA, 51.3 ng/ul salmon testes DNA, 50 uM zinc acetate, 200 nM TF, 25 C, 1 h; high values mean tight binding; settings: protein: recombinant; tags: N-terminal polyhistidine and DsRed monomer fusion (pET32a); label: CyDye5-dUTP incorporated in the synthesized complementary strand; 3' TTTTT single-stranded linker to array surface; dsDNA, one strand shown
Method in brief: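 An Axon 4000B scanner gave the binding signal as per-feature fluorescence intensity in arbitrary units. This followed washing of a custom Agilent array that had been incubated for 1 h at 25 °C with 200 nM protein in PBS, 2% BSA, salmon testes DNA and 50 µM zinc acetate. The proteins were transcription factors fused at the N-terminus to polyhistidine and DsRed, expressed in E. coli BL21-CodonPlus and purified on Ni–NTA.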

Sequence	binding signal
GCGTCGGTCGGTTTCAGTTCAGGTGCCCTTCGTTGAAGGTCGGAGTCACCTAGTGCAG	8730 fluorescence intensity (a.u.)
TTGGTTTCTCACGCTCTTGTATAAGCTATCCAGCTGATTTCGGAGTCACCTAGTGCAG	10200 fluorescence intensity (a.u.)
GATGAGCGATGTTTTTTTGTCTTCCTTTTCTCCTTTTACCCGGAGTCACCTAGTGCAG	9440 fluorescence intensity (a.u.)
TTATGGCTATTACCCCATTTCGGATGCTTGACCGCTTGAACGGAGTCACCTAGTGCAG	8390 fluorescence intensity (a.u.)
ATCTCCACGATGCATGTTCCACTGCTCTCTCTCTCTCTCTCGGAGTCACCTAGTGCAG	8140 fluorescence intensity (a.u.)
ATGAGGGGCTTACTGGGCTTGGGAACGTCGAGCGGCGCCACGGAGTCACCTAGTGCAG	10800 fluorescence intensity (a.u.)
TCTTCATCAGCATTTGTTAGAAAAGTTTCTAATATTTTTTCGGAGTCACCTAGTGCAG	8660 fluorescence intensity (a.u.)
ATCCAATTTGCTGCAGGAGTGGCCATGTTAATTTTGCTCTCGGAGTCACCTAGTGCAG	8380 fluorescence intensity (a.u.)
TGCCCGGTCCTTCCACTTTGTGCCAAGCTTGACCGACAGCCGGAGTCACCTAGTGCAG	8310 fluorescence intensity (a.u.)
GTGTACGTCGTTGTTCTCCTACGTACAATTTGCTAAATTTCGGAGTCACCTAGTGCAG	8160 fluorescence intensity (a.u.)
TCTCTCACTTCACTCAACTCACTCACTGCTGCTGTCGTACCGGAGTCACCTAGTGCAG	10500 fluorescence intensity (a.u.)
TGGTAGGATGGGAGGAGCATATTTTTATAAAACTTTGAAACGGAGTCACCTAGTGCAG	8500 fluorescence intensity (a.u.)
ATCATGCACCTTCAGGATCAAGCATTTTGTTGCCGTCCGTCGGAGTCACCTAGTGCAG	8250 fluorescence intensity (a.u.)
TGCCATTCCGTACCTCTGGTCTACTCTGTACTTTGTTCCACGGAGTCACCTAGTGCAG	12400 fluorescence intensity (a.u.)
TCGTCTGGTGCGCCGCCTACCTCGCCGCCGCCATCTCCTCCGGAGTCACCTAGTGCAG	12800 fluorescence intensity (a.u.)
GGTACTACTCTTCGCCATCGCCGCCGTGCTTCTCCTCGCCCGGAGTCACCTAGTGCAG	8310 fluorescence intensity (a.u.)
CACTTCAATTTGTGCACCATGCATGACACTCAGATTATTCCGGAGTCACCTAGTGCAG	9080 fluorescence intensity (a.u.)
CTTTTGAACGAAGTTTGACCATTCGTCTTATTCAAACACTCGGAGTCACCTAGTGCAG	9160 fluorescence intensity (a.u.)
TGCTTCCTCCAGGCTCTACGATCCCCACCGCTGCGCTGACCGGAGTCACCTAGTGCAG	8540 fluorescence intensity (a.u.)
AGTAACTCCACTGCTCTGCTCTGTGCCTGAATCTCTGACACGGAGTCACCTAGTGCAG	8320 fluorescence intensity (a.u.)
GGGATGGAATGCAATGCCTGCTTTTTTAATGTACTACTACCGGAGTCACCTAGTGCAG	8050 fluorescence intensity (a.u.)

Sequence	binding signal
CCACACAAAGCCCTAGCATTCAAGCCCATTCCTACATTTCCGGAGTCACCTAGTGCAG	8880 fluorescence intensity (a.u.)
ATCCTGGACTATGGCTTTCTCTCGTAGCACGATTTTTCTTCGGAGTCACCTAGTGCAG	10600 fluorescence intensity (a.u.)
GCTTGTACCACTGGTGCCATCTTTTTTACTACTTTTCAACCGGAGTCACCTAGTGCAG	9360 fluorescence intensity (a.u.)
CATGTTCCTCCAAACCCCTAATGGAAATGTTCTCATCTCTCGGAGTCACCTAGTGCAG	8280 fluorescence intensity (a.u.)
CGCGTGCGTTCGTTGGCGTCTACTTGTCTCCTGAGATTTTCGGAGTCACCTAGTGCAG	12200 fluorescence intensity (a.u.)
ACTTTAAGCCACGTATCTTTGATTCTTTTCCCCTTCTTTTCGGAGTCACCTAGTGCAG	8480 fluorescence intensity (a.u.)
CGATGGTGGAGATGTAGTCACGCTGTTCCGGCCCGTCTCCCGGAGTCACCTAGTGCAG	9300 fluorescence intensity (a.u.)
AGACTTAATAATAGTGCTCCTGGGGTCGTTAGTGTGTAACCGGAGTCACCTAGTGCAG	8750 fluorescence intensity (a.u.)
ACACAACCGCTCATATAAACATGCATATATCCTACTTCTACGGAGTCACCTAGTGCAG	9030 fluorescence intensity (a.u.)
AGAGATAGTACTCTGTGCGTGGTGGGAGGAGGGATGAAAACGGAGTCACCTAGTGCAG	9500 fluorescence intensity (a.u.)
ACCAGAGCTCCACTAACCAAATCCTCGCGCCATTAGCTTCCGGAGTCACCTAGTGCAG	9460 fluorescence intensity (a.u.)
GGGATCCACAGCCTAATCTTCGTTCTTATCCACTCATTCCCGGAGTCACCTAGTGCAG	9040 fluorescence intensity (a.u.)
GGTGCAGTCCTCCAGCTGCTTCTCCCCGCCGCCGACCCGCCGGAGTCACCTAGTGCAG	9670 fluorescence intensity (a.u.)
ACGCTCTCGACTCGATCGCGCGCGCGCGGTTGGCGGTTCCCGGAGTCACCTAGTGCAG	8250 fluorescence intensity (a.u.)
AGCTTCTGTGGCCAGCTGTTTCACCATCATCTCCGCGGCCCGGAGTCACCTAGTGCAG	9800 fluorescence intensity (a.u.)
CTCCGTCGCTGACTGCAACCTCCACCCACACGGCACCCATCGGAGTCACCTAGTGCAG	8090 fluorescence intensity (a.u.)
GCCTGATGTGTTGATGTGCTGCTGTTCAGACTTTGAACCTCGGAGTCACCTAGTGCAG	10800 fluorescence intensity (a.u.)
TTTGGACCTCTAAACTTTCACATATATCAGTTTATCTTACCGGAGTCACCTAGTGCAG	8220 fluorescence intensity (a.u.)
CCAGAGGTGCTCTTAGAGGGTAGGGTATTTATTTATTACACGGAGTCACCTAGTGCAG	8490 fluorescence intensity (a.u.)
ATCTCCATTGGATATCCCGTCTCTTCAGCCGGTCGTCAATCGGAGTCACCTAGTGCAG	9570 fluorescence intensity (a.u.)
TCACCCTACTGCAGCTGCTGTTTTTATGCATCCTGCTGCCCGGAGTCACCTAGTGCAG	8820 fluorescence intensity (a.u.)

Sequence	binding signal
TGAGCCTTCGTTTTCTCTCCCTCAGTTCTCCTCTACCACTCGGAGTCACCTAGTGCAG	8060 fluorescence intensity (a.u.)
CCTATTGGCTGCTCAACTCATCGTTCTGTTGCTTCCTTCTCGGAGTCACCTAGTGCAG	11300 fluorescence intensity (a.u.)
GGTACTTCTACTACCTCTGCAATCGGATTACATTGGACCACGGAGTCACCTAGTGCAG	9060 fluorescence intensity (a.u.)
AGTTCATCTCCCACTCCGGTGAGATCTCCCTGGTGAGCTTCGGAGTCACCTAGTGCAG	8800 fluorescence intensity (a.u.)
CTATCTTTTTCTCCATCTTTCTCTGTCCGTCCATTCACCCCGGAGTCACCTAGTGCAG	8690 fluorescence intensity (a.u.)
GGGAGGGAGGGACCGAGGGAGTACTCCGGTCAAGCGATCACGGAGTCACCTAGTGCAG	10200 fluorescence intensity (a.u.)
GAGTTTGTGTGCATGCGTTTATAGGTGTGAGTGTACGAGCCGGAGTCACCTAGTGCAG	8890 fluorescence intensity (a.u.)
AGCATCCCAGCAGCTTATCCATATTTTATCCTCTAAATACCGGAGTCACCTAGTGCAG	8830 fluorescence intensity (a.u.)
TTGGAGTTGTAGAGGAGGAGGAGGTGGTGGTGGAGGTGGTCGGAGTCACCTAGTGCAG	10200 fluorescence intensity (a.u.)
CCGTTTCGAAATGTTTACACCGTTGACTTTTTAGCACATGCGGAGTCACCTAGTGCAG	30100 fluorescence intensity (a.u.)
GTATGCTGGATGTAGATGGATTTTTTTCTGGGGTTGCTTACGGAGTCACCTAGTGCAG	8130 fluorescence intensity (a.u.)
ATTTTATATTATAAGTCGTTTTGACTTTTTCGCTAATCAACGGAGTCACCTAGTGCAG	8620 fluorescence intensity (a.u.)
ACTCTCTCATGCTCCCTCATGTTCCTGCCACAATCTATATCGGAGTCACCTAGTGCAG	9460 fluorescence intensity (a.u.)
GAGATATGGCAGATTTATTTACTGTTGGTAGTGCGCTTCACGGAGTCACCTAGTGCAG	10700 fluorescence intensity (a.u.)
GTCTCTCTTTTTGTTTCGTCGTAGATTTCTTGGAGAATTTCGGAGTCACCTAGTGCAG	11700 fluorescence intensity (a.u.)
TTACACAATCATCGTTTTTGCTTATTATTATTATTTATCACGGAGTCACCTAGTGCAG	8380 fluorescence intensity (a.u.)
TTTCATATGAGCGAATTTTAGATTGGGTTGTTTGCGGGGCCGGAGTCACCTAGTGCAG	8760 fluorescence intensity (a.u.)
TTGGTTGGTTGGTTATACAAAGACGCTACGAGTCCGGGAACGGAGTCACCTAGTGCAG	12400 fluorescence intensity (a.u.)
TTCTTCTGCCTTTTTTTTTTGGGGCTCATTTAGTCATTTACGGAGTCACCTAGTGCAG	9890 fluorescence intensity (a.u.)
CCGCTTCCATTTTGCCCAGCGACGACATATGCTGTTGCGTCGGAGTCACCTAGTGCAG	10700 fluorescence intensity (a.u.)
AACCTGGTCACCTACCTGACGGCGACGATGCACGCCGGCACGGAGTCACCTAGTGCAG	8200 fluorescence intensity (a.u.)

Sequence	binding signal
TACATCTCTCTTATTTGGATCACGTATTATCCTTTTTCATCGGAGTCACCTAGTGCAG	10300 fluorescence intensity (a.u.)
TCCCTTCGTCGTTCCGTCTGCCACGTACACCTTCCATCTACGGAGTCACCTAGTGCAG	9830 fluorescence intensity (a.u.)
GCAACAGCTTACTACTTACTACTCGGTCCCATCATATAAGCGGAGTCACCTAGTGCAG	9430 fluorescence intensity (a.u.)
GCAACCGCGAGTAGTTCCTGCCGAGCAACCGGTCTTTTCGCGGAGTCACCTAGTGCAG	8100 fluorescence intensity (a.u.)
ATGGTCCTTTGTCACGTTGGAGAAGACGCGCCACGGCCCACGGAGTCACCTAGTGCAG	8670 fluorescence intensity (a.u.)
CTTGTATTCCAGTCAGAATCCTACATTTTTCCTATTCCTCCGGAGTCACCTAGTGCAG	9430 fluorescence intensity (a.u.)
TATCATGTGGTTTGCTTCTGTTACCTGCTGACCTGTGTTTCGGAGTCACCTAGTGCAG	8490 fluorescence intensity (a.u.)
CTTCCTCTACTCGTCCTCTCCATTGCGCATCTTCCCTTTCCGGAGTCACCTAGTGCAG	10300 fluorescence intensity (a.u.)
TCCTTCCGGCTTCCTCGGTTCCTCCTCCTCCGCAGCTAATCGGAGTCACCTAGTGCAG	8430 fluorescence intensity (a.u.)
GAGTTTTTTTTCCTGATTTCTCAAAAATCAGACTCACAAACGGAGTCACCTAGTGCAG	8200 fluorescence intensity (a.u.)
TTCATTTTTCTCGTGCATCATGATTTACCTTTTTTTCATTCGGAGTCACCTAGTGCAG	11000 fluorescence intensity (a.u.)
TCGCTTATACTTATCAAACAAAATTTGATTTTTCGACCTTCGGAGTCACCTAGTGCAG	8120 fluorescence intensity (a.u.)
TCATTAATTGCACTATCTTCTACTTAAAATTATTTTTTTACGGAGTCACCTAGTGCAG	8640 fluorescence intensity (a.u.)
TTGACAATGGTTGGGGTGGTGGTGGTGTTCGCGGTGATGACGGAGTCACCTAGTGCAG	31700 fluorescence intensity (a.u.)
ATAAGGTTGACTATATTTCTCCTTCATCTTTCTCTCTATACGGAGTCACCTAGTGCAG	9000 fluorescence intensity (a.u.)
CTCTCGTGGTGTGGTGTGGACAAGAAAGGAAGGAAAGATGCGGAGTCACCTAGTGCAG	8700 fluorescence intensity (a.u.)
TGCTGAGGATGTCGTGGATTAGGCGCTTTTGATTTTGATTCGGAGTCACCTAGTGCAG	9130 fluorescence intensity (a.u.)
CCCGTCTCCTTGTGGGTTTTGGGAGGGGTGGTTCCTCGAGCGGAGTCACCTAGTGCAG	14200 fluorescence intensity (a.u.)
TTGAGTTGTGTTCTTGGTTGGGGAGGAGGAGGAGGAGATGCGGAGTCACCTAGTGCAG	15100 fluorescence intensity (a.u.)
GAAAAATCTGTCAGTTGCATGTTATGTGGTCAATTCGATCCGGAGTCACCTAGTGCAG	9080 fluorescence intensity (a.u.)
CGCGACTCTCTCCTCCTCGCCCTAGCCTCGTAACACGACGCGGAGTCACCTAGTGCAG	8640 fluorescence intensity (a.u.)

Some values from the results shown:
Entry of TGCTGAGGATGTCGTGGATTAGGCGCTTTTGATTTTGATTCGGAGTCACCTAGTGCAG under binding signal: 9130 fluorescence intensity (a.u.)
Entry of CTTGTATTCCAGTCAGAATCCTACATTTTTCCTATTCCTCCGGAGTCACCTAGTGCAG under binding signal: 9430 fluorescence intensity (a.u.)
Entry of CTTCCTCTACTCGTCCTCTCCATTGCGCATCTTCCCTTTCCGGAGTCACCTAGTGCAG under binding signal: 10300 fluorescence intensity (a.u.)
Entry of TACATCTCTCTTATTTGGATCACGTATTATCCTTTTTCATCGGAGTCACCTAGTGCAG under binding signal: 10300 fluorescence intensity (a.u.)
Entry of TCGCTTATACTTATCAAACAAAATTTGATTTTTCGACCTTCGGAGTCACCTAGTGCAG under binding signal: 8120 fluorescence intensity (a.u.)
Entry of GCAACCGCGAGTAGTTCCTGCCGAGCAACCGGTCTTTTCGCGGAGTCACCTAGTGCAG under binding signal: 8100 fluorescence intensity (a.u.)
Entry of GAGTTTTTTTTCCTGATTTCTCAAAAATCAGACTCACAAACGGAGTCACCTAGTGCAG under binding signal: 8200 fluorescence intensity (a.u.)
